Patent publication US4880007A, “Contrast agent for NMR scanning” (Amersham International PLC, priority 1985, dated 1989)

What was measured:
Assay type in all cases: physicochemical
[1] = T1 relaxation of phosphonate complexes at 200 MHz 25° C.; settings: for T1: 25° C., 1 millimolar, water 3.3s
[2] = Relaxation of hydroxy apatite-complex adducts at 10 MHz and 37° C.; settings: for T1: HAP only 2.50s
[3] = Relaxation (T1, T2) of complexes at 10 MHz 37° C., 10 mM; settings: for T1/T2: 10 millimolar solutions
[4] = T1 relaxation study of Gd complexes in aqueous solution at 200 MHz and 300° K.; settings: 200 MHz
[5] = HAP adduct 10 mg/ml, 10 MHz 37° C., HAP only 0.97s
[6] = HAP adduct 10 mg/ml, 10 MHz 37° C.
[7] = 10 MHz 37° C., 10 millimolar solutions (comparison MXDTMP/EDTMP)

## O=P(O)(O)CN(CCO)CP(=O)(O)O.O=P(O)(O)CN(CCO)CP(=O)(O)O.[Cr] [Cr(AEDMP)2]
[1]; chromium/gadolinium complexes
  T1: 1.13 s
[2]; [5]
  T2: 0.53 s
[2]; [6]
  T1: 1.03 s

## O=C(O)CCCCCN(CP(=O)(O)O)CP(=O)(O)O.O=C(O)CCCCCN(CP(=O)(O)O)CP(=O)(O)O.[Cr] [Cr(AHADMP)2]
[1]; chromium/gadolinium complexes
  T1: 1.04 s
[2]; [5]
  T2: 0.55 s
[2]; [6]
  T1: 1.17 s

## O=C(O)CCCN(CP(=O)(O)O)CP(=O)(O)O.O=C(O)CCCN(CP(=O)(O)O)CP(=O)(O)O.[Cr] [Cr(GABADMP)2]
[1]; chromium/gadolinium complexes
  T1: 0.91 s
[2]
  T2: 0.67 s
[2]; [6]
  T1: 1.39 s

## O=C(O)CN(CP(=O)(O)O)CP(=O)(O)O.O=C(O)CN(CP(=O)(O)O)CP(=O)(O)O.[Cr] [Cr(GDMP)2]
[1]; chromium/gadolinium complexes
  T1: 0.89 s
[2]; [5]
  T2: 0.54 s
[2]; [6]
  T1: 0.97 s

## O=P(O)(O)CN(Cc1cccc(CN(CP(=O)(O)O)CP(=O)(O)O)c1)CP(=O)(O)O.[Cr] [CrMXDTMP]
[1]; chromium/gadolinium complexes
  T1: 0.55 s
[3]; 10 MHz, 37° C., 10 mM
  T1: 160 ms
  T2: 130 ms
[2]; [5]
  T2: 0.56 s
[2]; [6]
  T1: 0.98 s

## O=P(O)(O)CN(CCN(CP(=O)(O)O)CP(=O)(O)O)CCN(CP(=O)(O)O)CP(=O)(O)O.[Gd] [Gd.DTPMP]
[4]; 0.5 mM
  T1: 144 ms
[4]; 1 mM
  T1: 45 ms
[4]; 2.5 mM
  T1: 38 ms
[4]; 5 mM
  T1: 23 ms

## O=P(O)(O)CN(CCN(CP(=O)(O)O)CP(=O)(O)O)CP(=O)(O)O.[Gd] [Gd.EDTMP]
[4]; 0.5 mM
  T1: 168 ms
[4]; 1 mM
  T1: 87 ms
[4]; 2.5 mM
  T1: 38 ms
[4]; 5 mM
  T1: 18 ms

## O=P(O)(O)CN(CCCCCCN(CP(=O)(O)O)CP(=O)(O)O)CP(=O)(O)O.[Gd] [Gd.HDTMP]
[4]; 0.5 mM
  T1: 284 ms
[4]; 1 mM
  T1: 142 ms
[4]; 2.5 mM
  T1: 71 ms
[4]; 5 mM
  T1: 30 ms

## O=P(O)(O)CN(Cc1cccc(CN(CP(=O)(O)O)CP(=O)(O)O)c1)CP(=O)(O)O.[Gd] [GdMXDTMP]
[1]; chromium/gadolinium complexes
  T1: 0.064 s
[3]; 10 MHz, 37° C., 10 mM
  T1: 10 ms
  T2: 7 ms
[2]; [5]
  T2: 0.06 s
[2]; [6]
  T1: 0.06 s

## O=P(O)(O)CN(Cc1cccc(CN(CP(=O)(O)O)CP(=O)(O)O)c1)CP(=O)(O)O [MXDTMP, Meta-xylene diamine tetramethylene phosphonate]
[1]; complexed to metal
  NMR line shape / effect on T2 relaxation: sharp which implies less effect on T2 relaxation

## O=P(O)(O)CN(CCO)CP(=O)(O)O.O=P(O)(O)CN(CCO)CP(=O)(O)O.[Mn] [Mn(AEDMP)2]
[1]; manganese complexes
  T1: 0.007 s
[2]; [5]
  T2: 0.12 s
[2]; [6]
  T1: 0.14 s

## O=C(O)CCCCCN(CP(=O)(O)O)CP(=O)(O)O.O=C(O)CCCCCN(CP(=O)(O)O)CP(=O)(O)O.[Mn] [Mn(AHADMP)2]
[1]; manganese complexes
  T1: 0.125 s
[2]; [5]
  T2: 0.18 s
[2]; [6]
  T1: 0.26 s

## O=C(O)CCCN(CP(=O)(O)O)CP(=O)(O)O.O=C(O)CCCN(CP(=O)(O)O)CP(=O)(O)O.[Mn] [Mn(GABADMP)2]
[1]; manganese complexes
  T1: 0.072 s
[2]
  T2: 0.16 s
[2]; [6]
  T1: 0.24 s

## O=C(O)CN(CP(=O)(O)O)CP(=O)(O)O.O=C(O)CN(CP(=O)(O)O)CP(=O)(O)O.[Mn] [Mn(GDMP)2]
[1]; manganese complexes
  T1: 0.160 s
[2]; [5]
  T2: 0.24 s
[2]; [6]
  T1: 0.24 s

## O=P(O)(O)CN(CCN(CP(=O)(O)O)CP(=O)(O)O)CP(=O)(O)O.[Mn] [MnEDTMP]
[3]; 10 MHz 37° C.
  T1/T2: 1.1
[3]; [7]
  T1: 27 ms
  T2: 24 ms
[2]
  T2: 0.13 s
[2]; [6]
  T1: 0.23 s

## O=P(O)(O)CN(Cc1cccc(CN(CP(=O)(O)O)CP(=O)(O)O)c1)CP(=O)(O)O.[Mn] [MnMXDTMP, manganese metaxylene diamine tetramethylene phosphonate]
[1]; manganese complexes
  T1: 0.097 s
[3]; 10 MHz 37° C.
  T1/T2: 1.1
[3]; [7]
  T1: 10 ms
  T2: 9 ms
[3]; 10 MHz, 37° C., 10 mM
  T1: 10 ms
  T2: 9 ms
[2]; [5]
  T2: 0.11 s
[2]; [6]
  T1: 0.13 s
